Measurements: patent publication US20250032493A1, “Methods for Treating Diseases Using MALT1 Inhibitors” (RARIFIED BIOSCIENCES, INC., priority 2021, published 2025)

How the values were obtained:
[1] = tested on: rat collagen induced arthritis (CIA) model; assay: Rat collagen-induced arthritis model: clinical score; conditions: in vivo
splenic Tregs = assay: Rat CIA model: splenic Treg levels; conditions: in vivo
Experimental: For isolation of synovial fluid prior to study termination, animals were anesthetized and the skin on the hind limbs were separated to ensure exposure of knee joint. A small incision was made near the top of the knee joint and the articular cavity was rinsed with 60 μl phosphate-buffered saline (PBS) for 2 time and ˜50-60 μl synovial fluid was collected. The synovial fluid samples were spun down, and the supernatant stored at −80° C. prior to cytokine analysis. At study termination, plasma was prepared from whole blood and stored at −80° C. prior to cytokine analysis and measurement of total and anti-collagen IgG. Single cell suspensions were prepared from harvested spleens following standard methods and Treg frequencies measured by flow cytometry-based immunophenotyping of freshly isolated cells.
Harvested spleens were homogenized in cold PBS and cellular debris removed by passing through a […] cell strainer. The cell suspension was centrifuged at 300×g for 5 min at 4° C. and the pellet was treated with 1×RBC lysis buffer per manufacturer's protocol (Thermofisher). The washed cell pellet was resuspended for a final concentration of 5-10×10^6 cells/ml and 100 μl of cell suspension was processed for immunophenotyping. […] Cells were washed with cold FACS wash buffer (BD) and fixed with 1×FoxP3/Transcription Factor Fixation Buffer (Thermofisher) for overnight at 4° C. […] Cells were washed 2-3× with the permeabilization and wash buffer as mentioned earlier, and finally resuspended in FACS wash buffer. Samples were acquired on a BD LSRFortessa flow cytometer and data analyzed using the FlowJo software (BD).

Compound: CO[C@@H](C)c1c(NC(=O)Nc2ccnc(C(F)(F)F)c2)cnc2cc(Cl)nn12 [REO-981]
- AUC for a 50% reduction in disease score [1]: 31,500 ng*h/ml
- drug concentration AUC achieving a 50% effect on disease score [1]: 31,500 ng*hr/ml
- log10AUC value at ~50% reduction in the clinical score [1]: ~1.5 μg*hr/mL
- log10Cmax value at ~50% reduction in the clinical score [1]: ~3.1 ng/mL
- AUC for a 50% reduction in Treg numbers (splenic Tregs): 155,000 ng*h/ml
- drug concentration AUC reducing Treg numbers by 50% compared to naïve animals (splenic Tregs): 155,000 ng*hr/ml
- log10AUC value at ~40% reduction in Treg levels (splenic Tregs): ~1.9 μg*hr/mL
- log10Cmax value at ~40% reduction in Treg levels (splenic Tregs): ~3.6 ng/mL
